# Results taken from PubChem BioAssay AID1671190 (National Center for Advancing Translational Sciences (NCATS), 2021).
# By UniProt entry, the sequences of proteins in these tests, tags left out. Where a name states a change or a piece, a line headed by the entry shows the natural chain unless it says otherwise.
# UniProt P18054: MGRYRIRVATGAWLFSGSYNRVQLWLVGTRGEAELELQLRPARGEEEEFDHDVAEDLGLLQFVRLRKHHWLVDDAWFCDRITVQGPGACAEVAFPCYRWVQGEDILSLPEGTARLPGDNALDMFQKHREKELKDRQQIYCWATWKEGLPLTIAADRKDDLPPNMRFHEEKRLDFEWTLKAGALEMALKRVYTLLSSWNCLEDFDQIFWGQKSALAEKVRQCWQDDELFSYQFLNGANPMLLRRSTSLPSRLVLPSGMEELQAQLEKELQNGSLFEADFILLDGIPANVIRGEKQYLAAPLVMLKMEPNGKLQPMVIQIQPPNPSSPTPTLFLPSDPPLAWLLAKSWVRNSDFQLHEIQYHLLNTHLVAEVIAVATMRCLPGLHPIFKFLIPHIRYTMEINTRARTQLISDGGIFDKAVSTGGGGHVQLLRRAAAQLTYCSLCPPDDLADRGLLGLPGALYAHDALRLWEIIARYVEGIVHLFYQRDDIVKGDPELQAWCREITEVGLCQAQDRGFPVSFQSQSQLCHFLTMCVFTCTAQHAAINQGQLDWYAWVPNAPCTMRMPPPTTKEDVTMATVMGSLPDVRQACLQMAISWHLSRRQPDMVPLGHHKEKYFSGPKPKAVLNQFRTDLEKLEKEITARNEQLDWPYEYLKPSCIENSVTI
# Out of some 580,000 compounds screened, about 6,100 (1.1%) were called active. The inconclusive results got no clear call from the source; some entries with a clear call stand among them for comparison. The call rests on the fitted dose curve; in most records, active means well fitted inhibition curve with a large enough effect; inconclusive means small, poorly fitted or top-dose-only effect, or another doubt; inactive means no such curve, though single readings can be large or run the other way. Potencies of inconclusive entries are doubtful fits and often do not repeat.
# Molecular target: Polyunsaturated fatty acid lipoxygenase ALOX12 (Homo sapiens) (UniProt P18054)
# Assay: Primary qHTS assay for inhibitors of human arachidonate 12S-lipoxygenase (ALOX12): Round 2
# Conditions: purified 12hLO, xylenol orange hydroperoxide absorbance; activity change, negative = inhibition: at 108 µM (top of the series) unless noted
# Method in brief: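 Purified human 12hLO at 150 nM in 25 mM Hepes, 0.01% Triton X-100, pH 7.0, preincubated 15 min at room temperature with compound. Reaction started with 40 uM arachidonic acid, 30 min at room temperature. Hydroperoxide measured by Fe-xylenol orange, 573/405 nm absorbance ratio.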
# On the % scale 0 is the no-effect control and ±100 the full control effect; potency means the concentration at half of the fitted maximal effect.
Compound,Potency,"activity change, negative = inhibition"
CCN1/C(=C/c2ccc3cc(C)cc(C)c3[n+]2CC)Sc2cc(C)ccc21,active: 39.8 µM,
O=C1c2cccc3cccc(c23)C(=O)C1(O)O,"inconclusive: 28.2 µM [inhibitor, partial curve, poor fit]",
O=C(O)c1ccc(C=C(c2nc3ccccc3s2)c2nc3ccccc3s2)cc1,"inconclusive: 50.1 µM [inhibitor, partial curve, poor fit]",
Cc1nc(CN2CCN(C(=O)[C@H]3CC[C@@H](N)C3)CC2)cs1,"inconclusive: 11.2 µM [inhibitor, full curve]",
O=C(Cn1cnc2ccccc2c1=O)N1CCN(Cc2ccccc2)CC1,,inactive: 27.6%
CC(NC(=O)c1noc(-c2ccc3c(c2)OCO3)n1)c1ccccc1 (stereo unspecified),"inconclusive: 22.4 µM [inhibitor, full curve]",
CCC1CCCCN1c1cc(C)nc2cc(-c3cccc(C)c3)nn12 (stereo unspecified),"inconclusive: 5.01 µM [inhibitor, full curve, poor fit]",
O=S(=O)(Nc1cccc2c1CCCC2)c1cc(F)ccc1F,,inactive: -0.699%
CCCCNCCOCCOc1ccc(F)cc1,"inconclusive: 22.4 µM [inhibitor, single point]",
O=C1CC(C(=O)Nc2cccc(Cl)c2)c2c(nc(N3CCCC3)[nH]c2=O)N1 (stereo unspecified),"inconclusive: 44.7 µM [inhibitor, partial curve, poor fit]",
CN(C)S(=O)(=O)c1cccc(NC(=S)N/N=C/c2cc(Br)ccc2O)c1,active: 28.2 µM,
CCNc1c(NC(=O)c2cc(Cl)ccc2OC)c(=O)oc2ccccc12,"inconclusive: 100 µM [inhibitor, single point]",
CCN(CC(=O)Nc1ccc(NC(C)=O)cc1)C(=O)CCN1C(=O)c2cccc([N+](=O)[O-])c2C1=O,"inconclusive: 50.1 µM [inhibitor, partial curve, poor fit]",
Cc1cc(=O)n2[nH]c(=O)c(N=Nc3ccccc3)c2[nH]1,"inconclusive: 1.12 µM [inhibitor, full curve, poor fit]",
O=[N+]([O-])c1ccc(O)c(C=NNc2ccc(S(=O)(=O)O)cc2)c1,"inconclusive: 5.01 µM [inhibitor, full curve, poor fit]",
COc1ccccc1Cc1nc2ccccc2nc1SCC(=O)Nc1ccccc1C(F)(F)F,,inactive: 0.0678%
CCOC(=O)c1cnc(SCc2nc(N)nc(Nc3ccccc3OC)n2)nc1N,"inconclusive: 50.1 µM [inhibitor, partial curve, poor fit]",
COc1ccc(C(=O)NNC(=O)CSc2nnc3ccccn23)cc1OC,"inconclusive: 50.1 µM [inhibitor, partial curve, poor fit]",
CC(C)[C@H](N[C@@H](C)c1ccccc1)c1c(O)ccc2ccccc12,"inconclusive: 44.7 µM [inhibitor, partial curve, poor fit]",
COc1ccc2c(C)cc(SCC#N)nc2c1,,inactive: 0.863%
CCCc1c(C(=O)N2CCN(c3ccccc3OC)CC2)cnn1-c1ccccc1,"inconclusive: 100 µM [inhibitor, single point]",
CC(NC(=O)c1ccc(Cn2c(=O)c3cccn3c3cccnc32)cc1)c1ccccc1 (stereo unspecified),"inconclusive: 50.1 µM [inhibitor, partial curve, poor fit]",

# At a glance, part of the list above.
Compound,Potency,"activity change, negative = inhibition"
O=C1c2cccc3cccc(c23)C(=O)C1(O)O,"inconclusive: 28.2 µM [inhibitor, partial curve, poor fit]",
O=C(O)c1ccc(C=C(c2nc3ccccc3s2)c2nc3ccccc3s2)cc1,"inconclusive: 50.1 µM [inhibitor, partial curve, poor fit]",
Cc1nc(CN2CCN(C(=O)[C@H]3CC[C@@H](N)C3)CC2)cs1,"inconclusive: 11.2 µM [inhibitor, full curve]",

# Continuation:

Compound,Potency,"activity change, negative = inhibition"
O=S(=O)(c1ccccc1)N1CCC[C@@]2(CCN(c3cccc(-c4ccccc4)c3)C2)C1,"inconclusive: 28.2 µM [inhibitor, single point]",
CCCNC(=O)C(C)NC(=O)c1ccc2ccccc2n1 (stereo unspecified),,inactive: -19.1%
COc1ccc2nc(SCC(=O)c3cc(C)n(C4CC4)c3C)[nH]c2c1,,inactive: -5.95%
CC(C)c1ccccc1N=C1SCCCN1C(=O)c1cccc(N2C(=O)CCC2=O)c1,"inconclusive: 1.58 µM [inhibitor, full curve, poor fit]",
Cc1oc2cc(OCC(=O)N3CCCCC3)ccc2c(=O)c1-c1ccc(Cl)cc1,"inconclusive: 100 µM [inhibitor, partial curve, poor fit]",
Cc1cccc(N(C)c2ccc3nnc(-c4cc(C(=O)N(C)C)ccn4)n3n2)c1,"inconclusive: 20 µM [inhibitor, full curve]",
S=C(N/N=C/c1c(Cl)cccc1Cl)Nc1ccccc1,"inconclusive: 126 µM [inhibitor, single point]",
CCNc1nc(SCC(=O)NC)nc2ccccc12,,inactive: -14.3%
CCOC(=O)N1CCC(NC)CC1,"inconclusive: 0.367 µM [inhibitor, full curve]",
CCOc1cc(NC(=S)Nc2ccc(Cl)cc2)c(OCC)cc1NC(C)=O,"inconclusive: 50.1 µM [inhibitor, partial curve, poor fit]",
CCc1ccccc1NC(=O)N1CCc2cc(OC)c(OC)cc2C1CC(=O)OC (stereo unspecified),"inconclusive: 112 µM [inhibitor, partial curve, poor fit]",
O=C(Nc1cccc2ncccc12)c1ccc(Oc2ccccc2)cc1,"inconclusive: 44.7 µM [inhibitor, partial curve, poor fit]",
CCc1nnc(NS(=O)(=O)c2ccc(NC(=S)NC(=O)c3ccc(F)cc3)cc2)s1,active: 22.4 µM,
O=C(CCN1C(=O)/C(=C\C=C\c2ccccc2)SC1=S)Nc1ccc(C(=O)O)cc1,active: 31.6 µM,
COC(=O)c1ccc(CSc2ncn[nH]2)o1,"inconclusive: 0.501 µM [inhibitor, full curve, poor fit]",
S=C(NCCNC(=S)Nc1ccccc1)Nc1ccccc1,"inconclusive: 44.7 µM [inhibitor, partial curve, poor fit]",
O=C(CN(CC1CCCO1)C(=O)CCC(=O)Nc1ccccn1)NCC1CCCO1 (stereo unspecified),,inactive: 113%
Cc1ccc(C)c(Nc2nc3c(S(=O)(=O)c4ccc(Br)cc4)nnn3c3ccsc23)c1,"inconclusive: 100 µM [inhibitor, partial curve, poor fit]",
O=C(NC1CCCCC1)C(c1cccnc1)N(C(=O)CCl)c1ccccc1Cl (stereo unspecified),,inactive: -27.7%
O=S(=O)(Nc1ncccn1)c1ccc(NC(=S)Nc2ccc(Cl)cc2)cc1,"inconclusive: 100 µM [inhibitor, partial curve, poor fit]",
CN(C)C(=O)CNC(=O)c1ccc(C(F)(F)F)cc1,,inactive: 45.5%
Cc1ccc(CC2CCOC3(CCN(C(=O)c4cccs4)CC3)C2)cc1 (stereo unspecified),"inconclusive: 79.4 µM [inhibitor, partial curve]",

Compound,Potency,"activity change, negative = inhibition"
O=c1c2ccc([N+](=O)[O-])cc2ncn1CCOc1ccccc1,,inactive: 2.67%
CC(C)NC(=O)c1cc(C(=O)c2cc(Cl)ccc2O)coc1=N,"inconclusive: 25.1 µM [inhibitor, partial curve, poor fit]",
CC(=O)N1N=C(c2ccccc2)CC1c1cn(C)c2ccccc12 (stereo unspecified),,inactive: -5.86%
Cc1cc(NC(=O)c2cc(-c3ccc(OC(C)C)cc3)nc3ccccc23)no1,"inconclusive: 20 µM [inhibitor, partial curve, poor fit]",
O=C([C@@H]1Cc2nc[nH]c2CN1Cc1ccc(Cl)cc1)N1CCC(Cc2ccccc2)CC1,,inactive: 57.3%
CCN(Cc1ccc(Cl)s1)C(=O)CCl,"inconclusive: 39.8 µM [inhibitor, partial curve, poor fit]",
CC(C)c1ccc(S(=O)(=O)N2CCN(C(=O)CN3C(=O)NC4(CCCC4)C3=O)CC2)cc1,"inconclusive: 79.4 µM [inhibitor, single point]",
O=C(Cn1cc(/C=C\[N+](=O)[O-])c2ccccc21)Nc1ccccc1,"inconclusive: 56.2 µM [inhibitor, partial curve, poor fit]",
CCCN(CCC)c1cc(C)nc2nc(-c3ccc(C(C)(C)C)cc3)nn12,,inactive: -18.3%
CN(C)c1ccc(-c2nc3ccc(Cl)cn3c2Nc2ccc3c(c2)OCCO3)cc1,active: 5.62 µM,
Cn1cccc1C(=O)N1CCC2(CC1)CN(C(=O)Nc1ccccc1)C2,"inconclusive: 31.6 µM [inhibitor, single point]",
O=c1cc(N2CCCCC2)c(-c2ccccc2)nn1Cc1ccc(Cl)cc1,"inconclusive: 112 µM [inhibitor, single point]",
Cc1ccc(-n2c(N)c(C(=O)N3CCOCC3)sc2=S)cc1,"inconclusive: 31.6 µM [inhibitor, partial curve, poor fit]",
COc1ccc(NC(=S)N2CCC(c3ccc(C)cc3)C2)cc1 (stereo unspecified),"inconclusive: 44.7 µM [inhibitor, partial curve, poor fit]",
COc1ccc(S(=O)(=O)N2CC=C(c3ccccc3)CC2)cc1OC,,inactive: 3.06%
CN1CCN(c2ccc(NC(=O)c3ccc4ccccc4c3)cc2)CC1,"inconclusive: 50.1 µM [inhibitor, partial curve, poor fit]",
O=C1/C(=C\c2cccnc2)Sc2ccccc21,,inactive: -15.5%
CS(=O)(=O)c1ccc(C(=O)N(Cc2ccco2)Cc2cccs2)cc1,"inconclusive: 35.5 µM [inhibitor, full curve, poor fit]",
C/C(=N\NC(=O)c1ccc(N(C)C)cc1)c1ccc(Br)s1,"inconclusive: 50.1 µM [inhibitor, partial curve, poor fit]",
Cc1c(C(=O)NCc2ccccc2C(F)(F)F)sc(=O)n1Cc1ccc2c(c1)OCO2,"inconclusive: 44.7 µM [inhibitor, partial curve]",
CC(C)COc1cccc(C(=O)Nc2ccc3oc(-c4ccncc4)nc3c2)c1,"inconclusive: 44.7 µM [inhibitor, partial curve, poor fit]",
CCOCCCNC(=O)Cn1ncc2c([nH]c3ccc(C)cc32)c1=O,"inconclusive: 44.7 µM [inhibitor, partial curve, poor fit]",
